From patent US20250250357A1
Results are given in words; binding and its absence hold for the method and conditions named. Some results given as binding are weak or reduced against the parent protein; the word gives no strength.

Protein sequences, listed by entry. Tags and fused reporters are not part of them. Lines headed by an entry give the natural chain unless they say otherwise; changes in a name come on top.
UniProt Q13421: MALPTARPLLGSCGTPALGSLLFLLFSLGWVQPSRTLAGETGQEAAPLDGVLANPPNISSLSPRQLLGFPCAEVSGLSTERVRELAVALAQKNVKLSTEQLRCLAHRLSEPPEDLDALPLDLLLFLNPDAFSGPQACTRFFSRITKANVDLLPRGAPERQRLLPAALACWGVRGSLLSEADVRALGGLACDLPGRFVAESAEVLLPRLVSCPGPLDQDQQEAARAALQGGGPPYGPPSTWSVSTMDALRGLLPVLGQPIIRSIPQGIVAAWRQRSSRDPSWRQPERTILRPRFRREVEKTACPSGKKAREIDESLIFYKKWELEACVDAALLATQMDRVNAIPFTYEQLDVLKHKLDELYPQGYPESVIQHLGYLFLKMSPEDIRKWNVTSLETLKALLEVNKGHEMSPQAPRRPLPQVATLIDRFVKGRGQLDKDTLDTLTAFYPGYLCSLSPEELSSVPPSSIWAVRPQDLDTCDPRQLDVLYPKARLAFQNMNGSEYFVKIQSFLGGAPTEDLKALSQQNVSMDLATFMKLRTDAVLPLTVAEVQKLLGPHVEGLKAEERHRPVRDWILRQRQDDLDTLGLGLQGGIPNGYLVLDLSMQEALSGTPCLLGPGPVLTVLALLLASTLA

Biological target: human MSLN-R3 protein (ELISA of Example 8) (human) (UniProt Q13421)
Assay: ELISA, coated human MSLN-R3 protein

binding: binds
B1: F3.38.10-L2H3a (scFv, not shown: small tags and cut ends)
scFv: DIVMTQSPDSLAVSLGERATINCRSSQSLIHSDGNTYLQWYQQKPGQSPKLLIYKVSNRFSGVPDRFSGSGSGTDFTLTISSLQAEDVAVYYCSQTTHVPFTFGQGTKLEIKGGGGSGGGGSGGGGSEVQLVQSGAEVKKPGASVKVSCKASGYIFTDYYMNWVRQAPGQRLEWMGVINPKQGVISHNQKFKGRVTITVDKSANTAYMELSSLRSEDTAVYYCANYGSRFYAMDYWGQGTTVTVSS
